Laboratory results from publication PMC10775674.

Biological target: Flag-tagged Vimentin ∆Head-Tail deletion mutant
Assay: co-IP; 293T cells co-transfected with Flag-tagged Vimentin (FL or deletion mutants) and Myc-NEURL3; western blot

binding: no binding
B1: Myc-NEURL3 (enzyme, UniProt Q96EH8 1-262)
chain: MGAQLCFEANAKAPREALRFHAEAKGAQVRLDTRGCIAHRRTTFHDGIVFSQRPVRLGERVALRVLREESGWCGGLRVGFTRLDPACVSVPSLPPFLCPDLEEQSPTWAAVLPEGCALTGDLVRFWVDRRGCLFAKVNAGCRLLLREGVPVGAPLWAVMDVYGTTKAIELLDPTASRLPTPMPWDLSNKAVPEPKATPGEECAICFYHAANTRLVPCGHTYFCRYCAWRVFSDTAKCPVCRWQIEAVAPAQGPPALRVEEGS

Results are given in words; binding and its absence hold for the method and conditions named. Binding seen in cells or lysates may run through a third protein. Where a sequence is shown, tags or fusion partners need not be part of it.
